No constants are given. Whether binding was seen depends on the method and setting. Binding seen in cells or lysates may run through a third protein. Some entries that bind do so weakly or less than the wild type.

Chains of the proteins cited; added tags and fusions are not shown.
UniProt P22366: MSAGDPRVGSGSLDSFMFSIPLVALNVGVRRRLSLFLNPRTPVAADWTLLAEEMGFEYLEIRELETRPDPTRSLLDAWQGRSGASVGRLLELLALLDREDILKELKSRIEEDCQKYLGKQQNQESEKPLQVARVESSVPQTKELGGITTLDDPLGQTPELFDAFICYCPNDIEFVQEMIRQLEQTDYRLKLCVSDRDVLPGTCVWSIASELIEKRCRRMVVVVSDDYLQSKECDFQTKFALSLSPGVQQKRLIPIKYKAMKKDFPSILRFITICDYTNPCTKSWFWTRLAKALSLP
UniProt Q62120: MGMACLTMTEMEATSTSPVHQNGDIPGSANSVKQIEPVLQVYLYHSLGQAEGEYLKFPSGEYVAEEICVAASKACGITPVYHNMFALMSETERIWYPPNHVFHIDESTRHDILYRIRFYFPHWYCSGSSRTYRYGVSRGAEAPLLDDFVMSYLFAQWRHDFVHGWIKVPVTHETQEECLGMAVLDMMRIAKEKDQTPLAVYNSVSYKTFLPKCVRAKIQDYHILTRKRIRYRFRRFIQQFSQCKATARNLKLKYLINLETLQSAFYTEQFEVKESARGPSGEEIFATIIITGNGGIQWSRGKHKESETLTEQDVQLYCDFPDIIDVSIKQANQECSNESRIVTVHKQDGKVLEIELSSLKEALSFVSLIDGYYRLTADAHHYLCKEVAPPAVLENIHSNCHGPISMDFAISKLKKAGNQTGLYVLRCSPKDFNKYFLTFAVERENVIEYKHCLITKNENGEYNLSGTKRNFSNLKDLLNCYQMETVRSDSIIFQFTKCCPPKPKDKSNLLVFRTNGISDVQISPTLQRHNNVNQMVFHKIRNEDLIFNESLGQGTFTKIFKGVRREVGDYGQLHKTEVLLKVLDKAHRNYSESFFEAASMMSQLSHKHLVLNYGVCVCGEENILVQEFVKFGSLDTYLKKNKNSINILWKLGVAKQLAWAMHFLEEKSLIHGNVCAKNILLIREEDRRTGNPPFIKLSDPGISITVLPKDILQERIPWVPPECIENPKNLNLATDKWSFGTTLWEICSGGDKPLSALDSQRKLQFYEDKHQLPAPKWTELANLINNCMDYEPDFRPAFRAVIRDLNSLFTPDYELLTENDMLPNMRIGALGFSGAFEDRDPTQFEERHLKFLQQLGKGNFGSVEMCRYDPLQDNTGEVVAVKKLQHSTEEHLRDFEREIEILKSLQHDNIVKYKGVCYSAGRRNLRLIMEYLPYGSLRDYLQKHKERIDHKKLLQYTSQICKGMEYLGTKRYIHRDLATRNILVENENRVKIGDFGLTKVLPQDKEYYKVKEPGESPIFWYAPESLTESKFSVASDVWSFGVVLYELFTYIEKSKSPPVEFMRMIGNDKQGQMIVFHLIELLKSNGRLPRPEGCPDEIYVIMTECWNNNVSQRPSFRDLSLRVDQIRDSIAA

From PMC9510782 come the findings set out here.

Assay [1] has as its target MyD88 (endogenous, mouse bone marrow neutrophils) (mouse (endogenous in bone marrow neutrophils)) (UniProt P22366). Put plainly: co-IP; endogenous; lysates of WT and Dok3-/- mouse neutrophils treated with or without S protein for 15 min (or WT neutrophils with increasing PHPS1 and S protein), IP with anti-MyD88; probed for JAK2, pMyD88(Y257), MyD88.
Assay [2] concerns the target T1, Dok3 (endogenous, mouse bone marrow neutrophils) (mouse (endogenous in bone marrow neutrophils)) (UniProt Q9QZK7).
T1 sequence: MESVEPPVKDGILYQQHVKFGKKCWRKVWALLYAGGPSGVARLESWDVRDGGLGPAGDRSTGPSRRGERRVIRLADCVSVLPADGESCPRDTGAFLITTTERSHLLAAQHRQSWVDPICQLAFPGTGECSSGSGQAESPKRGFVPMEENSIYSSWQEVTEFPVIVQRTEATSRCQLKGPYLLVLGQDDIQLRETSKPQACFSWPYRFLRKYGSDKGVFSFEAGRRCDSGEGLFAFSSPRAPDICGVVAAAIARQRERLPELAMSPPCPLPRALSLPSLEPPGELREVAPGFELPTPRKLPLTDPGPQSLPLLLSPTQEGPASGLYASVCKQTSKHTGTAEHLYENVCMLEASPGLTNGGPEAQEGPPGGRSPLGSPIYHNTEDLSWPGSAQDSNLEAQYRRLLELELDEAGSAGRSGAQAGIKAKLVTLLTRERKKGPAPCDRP
Put plainly: co-IP; endogenous; lysates of WT mouse neutrophils IP with anti-Dok3 or IgG control; probed for Dok3 and MyD88.

With “JAK2 (endogenous, mouse bone marrow neutrophils) (from UniProt Q62120 1-1132) (enzyme)”, the binding result in assay [1] is “binds”.

For “MyD88 (endogenous, mouse bone marrow neutrophils) (from UniProt P22366 1-296)”, the binding result in assay [2] was “binds”.
